Results reported in publication PMC9007350, “Aurintricarboxylic acid is a canonical disruptor of the TAZ-TEAD transcriptional complex” (PLoS ONE, 2022).
Further values from the same series stand in other lists.

System: TC/TEAD transcriptional profile in TC-expressing NIH3T3 cells
Test: Bulk RNA-Seq, differential gene expression and GSEA (TC ATA v. TC DMSO)
Assay type: cell-based, murine
Conditions: TC ATA v. TC DMSO
Method: NIH3T3 and HEK293 cells were obtained from the American Type Tissue Collection (ATCC, Manassas, VA) and cultured in DMEM containing 10% fetal bovine serum and penicillin/streptomycin. A TEAD dual luciferase reporter assay was performed as previously described. Cells were treated with vehicle control or ATA (10 μM) for 48 h before measuring the luciferase activity or processing the samples for RNA extraction. Each experiment was repeated at least 2-3 times. NIH3T3 cells were used. The extracted RNA (RNeasy Mini, Qiagen) from treated cells was either used for qPCR measurements or sent for bulk RNA-Seq. Sequencing runs were performed on an Illumina HiSeq 4000 sequencer (Genewiz). Subsequent bioinformatics analysis was performed in the Galaxy Project platform. Paired end reads were aligned to the murine genome ([…]2 [27]. Raw count files were generated with featureCounts using a corresponding GTF reference. Differential gene expression analysis was performed with DESeq2 [29]. Transcripts were considered to be differentially expressed if the false discovery rate < 0.05 and Log2FC > 2. When performing differential gene expression for GSEA analysis, the Limma package was used (<5 CPM filtering) with t-scores used for rank statistics. GSEA plots and statistics were generated with FGSEA with custom gene sets. Raw sequencing reads and processed files have been deposited in the GEO repository (data will be uploaded upon manuscript acceptance). The Universal Probe Library probes (Roche) and the associated primer sequences for the qPCR targets are listed below: […]

O=C(O)C1=CC(=C(c2ccc(O)c(C(=O)O)c2)c2ccc(O)c(C(=O)O)c2)C=CC1=O [ATA, aurintricarboxylic acid]
Log2 Fold Change (Klf5): -0.2855
Log2 Fold Change (Klhl24): 0.2866
Log2 Fold Change (Kpnb1): -0.222
Log2 Fold Change (Lars): -0.211
Log2 Fold Change (Leprot): 0.2281
Log2 Fold Change (Lipa): 0.3212
Log2 Fold Change (Lrrc39): 1.097
Log2 Fold Change (Lyar): -0.2586
Log2 Fold Change (Map1b): -0.272
Log2 Fold Change (Map2k1): -0.2205
Log2 Fold Change (Mdn1): -0.3419
Log2 Fold Change (Metap1): -0.2159
Log2 Fold Change (Mettl7a1): 0.4512
Log2 Fold Change (Mgst2): 0.5497
Log2 Fold Change (Misp3): 0.5752
Log2 Fold Change (Mmd): -0.3011
Log2 Fold Change (Mn1): 0.3801
Log2 Fold Change (Mpp6): -0.207
Log2 Fold Change (Mrps10): -0.2675
Log2 Fold Change (Myh6): 1.256
Log2 Fold Change (Mylk4): 0.692
Log2 Fold Change (Mylk): 0.6396
Log2 Fold Change (Nacc2): 0.2971
Log2 Fold Change (Nap1l1): -0.2071
Log2 Fold Change (Net1): -0.2446
Log2 Fold Change (Neu1): 0.2823
Log2 Fold Change (Ngly1): 0.3979
Log2 Fold Change (Nid2): 0.4596
Log2 Fold Change (Noc2l): -0.2621
Log2 Fold Change (Nol10): -0.2148
Log2 Fold Change (Nolc1): -0.2369
Log2 Fold Change (Npas4): 0.579
Log2 Fold Change (Nsun2): -0.2003
Log2 Fold Change (Nt5dc3): -0.2851
Log2 Fold Change (Nup160): -0.2228
Log2 Fold Change (Nup205): -0.2231
Log2 Fold Change (Oaf): -0.2739
Log2 Fold Change (P4ha3): 0.2953
Log2 Fold Change (Pappa): 0.5236
Log2 Fold Change (Pawr): 0.2769
Log2 Fold Change (Pcdhb9): 0.6083
Log2 Fold Change (Pdgfc): 0.2436
Log2 Fold Change (Pdlim3): 0.5354
Log2 Fold Change (Pdlim5): 0.2888
Log2 Fold Change (Perm1): 0.7366
Log2 Fold Change (Pfas): -0.3358
Log2 Fold Change (Pfkm): 0.2521
Log2 Fold Change (Pgam2): 0.5329
Log2 Fold Change (Phactr1): 0.3767
Log2 Fold Change (Pik3ip1): 0.4583
Log2 Fold Change (Pik3r1): 0.2713
Log2 Fold Change (Plac1): -0.7794
Log2 Fold Change (Plekha1): -0.3132
Log2 Fold Change (Plekhh2): 0.2808
Log2 Fold Change (Plin4): 0.6111
Log2 Fold Change (Plpp1): 0.2637
Log2 Fold Change (Pnrc1): 0.328
Log2 Fold Change (Polr3gl): 0.469
Log2 Fold Change (Ppat): -0.2439
Log2 Fold Change (Pramef8): 0.3225
Log2 Fold Change (Prc1): -0.2082
Log2 Fold Change (Prickle1): 0.3258
Log2 Fold Change (Prrx1): 0.2153
Log2 Fold Change (Prss23): 0.2592
Log2 Fold Change (Psca): 0.6613
Log2 Fold Change (Ptpn21): -0.2255
Log2 Fold Change (Pttg1ip): -0.2103
Log2 Fold Change (Pygm): 0.4335
Log2 Fold Change (Rab3c): 0.5021
Log2 Fold Change (Rai14): -0.2838
Log2 Fold Change (Rap1gds1): -0.2029
Log2 Fold Change (Rcn3): 0.2746
Log2 Fold Change (Rftn2): 0.314
Log2 Fold Change (Rfx2): 0.4272
Log2 Fold Change (Rhoj): 0.2731
Log2 Fold Change (Rhoq): 0.2495
Log2 Fold Change (Rin2): 0.3262
Log2 Fold Change (Rnaseh2a): -0.2573
Log2 Fold Change (Rnd1): -0.3278
Log2 Fold Change (Rnf19b): -0.2794
Log2 Fold Change (Rnf144a): 0.3402
Log2 Fold Change (Rora): 0.6043
Log2 Fold Change (Ruvbl2): -0.2512
Log2 Fold Change (Scara5): 0.5618
Log2 Fold Change (Scp2): 0.2571
Log2 Fold Change (Sema3a): -0.3608
Log2 Fold Change (Sema6c): 0.5141
Log2 Fold Change (Shmt2): -0.2428
Log2 Fold Change (Sipa1l3): -0.3061
Log2 Fold Change (Slc2a4): 0.6518
Log2 Fold Change (Slc29a2): -0.4299
Log2 Fold Change (Slc38a6): 0.3447
Log2 Fold Change (Slc44a1): 0.2575
Log2 Fold Change (Slk): -0.2569
Log2 Fold Change (Smarca2): 0.2974
Log2 Fold Change (Smox): 0.2959
Log2 Fold Change (Sned1): 0.6541
Log2 Fold Change (Socs6): -0.2405
Log2 Fold Change (Sox5): 0.4942
Log2 Fold Change (Spo11): -0.526
Log2 Fold Change (Spry1): 0.3907
Log2 Fold Change (Spsb2): 0.3042
Log2 Fold Change (Srpx2): 0.6084
Log2 Fold Change (Stk38l): 0.3153
Log2 Fold Change (Sync): 0.7364
Log2 Fold Change (Synpo2): 0.4619
Log2 Fold Change (Tacc1): 0.349
Log2 Fold Change (Tacc2): -0.2478
Log2 Fold Change (Tap2): 0.3384
Log2 Fold Change (Tbc1d2): -0.3647
Log2 Fold Change (Tcn2): 0.6828
Log2 Fold Change (Tcp11l2): 0.7827
